Data reported in paper doi:10.1101/2025.09.05.674552.
Residue numbers refer to the chain shown, from its start. No constants are given. Whether binding was seen depends on the method and setting. In cells and extracts the contact can be indirect. Some results given as binding are weak or reduced against the parent protein; the word gives no strength. Tags and fused reporters may be left off the sequences shown.

By UniProt entry, the sequences of proteins in these tests, tags left out. Where a name states a change or a piece, a line headed by the entry shows the natural chain unless it says otherwise.
UniProt Q5S007, whole entry: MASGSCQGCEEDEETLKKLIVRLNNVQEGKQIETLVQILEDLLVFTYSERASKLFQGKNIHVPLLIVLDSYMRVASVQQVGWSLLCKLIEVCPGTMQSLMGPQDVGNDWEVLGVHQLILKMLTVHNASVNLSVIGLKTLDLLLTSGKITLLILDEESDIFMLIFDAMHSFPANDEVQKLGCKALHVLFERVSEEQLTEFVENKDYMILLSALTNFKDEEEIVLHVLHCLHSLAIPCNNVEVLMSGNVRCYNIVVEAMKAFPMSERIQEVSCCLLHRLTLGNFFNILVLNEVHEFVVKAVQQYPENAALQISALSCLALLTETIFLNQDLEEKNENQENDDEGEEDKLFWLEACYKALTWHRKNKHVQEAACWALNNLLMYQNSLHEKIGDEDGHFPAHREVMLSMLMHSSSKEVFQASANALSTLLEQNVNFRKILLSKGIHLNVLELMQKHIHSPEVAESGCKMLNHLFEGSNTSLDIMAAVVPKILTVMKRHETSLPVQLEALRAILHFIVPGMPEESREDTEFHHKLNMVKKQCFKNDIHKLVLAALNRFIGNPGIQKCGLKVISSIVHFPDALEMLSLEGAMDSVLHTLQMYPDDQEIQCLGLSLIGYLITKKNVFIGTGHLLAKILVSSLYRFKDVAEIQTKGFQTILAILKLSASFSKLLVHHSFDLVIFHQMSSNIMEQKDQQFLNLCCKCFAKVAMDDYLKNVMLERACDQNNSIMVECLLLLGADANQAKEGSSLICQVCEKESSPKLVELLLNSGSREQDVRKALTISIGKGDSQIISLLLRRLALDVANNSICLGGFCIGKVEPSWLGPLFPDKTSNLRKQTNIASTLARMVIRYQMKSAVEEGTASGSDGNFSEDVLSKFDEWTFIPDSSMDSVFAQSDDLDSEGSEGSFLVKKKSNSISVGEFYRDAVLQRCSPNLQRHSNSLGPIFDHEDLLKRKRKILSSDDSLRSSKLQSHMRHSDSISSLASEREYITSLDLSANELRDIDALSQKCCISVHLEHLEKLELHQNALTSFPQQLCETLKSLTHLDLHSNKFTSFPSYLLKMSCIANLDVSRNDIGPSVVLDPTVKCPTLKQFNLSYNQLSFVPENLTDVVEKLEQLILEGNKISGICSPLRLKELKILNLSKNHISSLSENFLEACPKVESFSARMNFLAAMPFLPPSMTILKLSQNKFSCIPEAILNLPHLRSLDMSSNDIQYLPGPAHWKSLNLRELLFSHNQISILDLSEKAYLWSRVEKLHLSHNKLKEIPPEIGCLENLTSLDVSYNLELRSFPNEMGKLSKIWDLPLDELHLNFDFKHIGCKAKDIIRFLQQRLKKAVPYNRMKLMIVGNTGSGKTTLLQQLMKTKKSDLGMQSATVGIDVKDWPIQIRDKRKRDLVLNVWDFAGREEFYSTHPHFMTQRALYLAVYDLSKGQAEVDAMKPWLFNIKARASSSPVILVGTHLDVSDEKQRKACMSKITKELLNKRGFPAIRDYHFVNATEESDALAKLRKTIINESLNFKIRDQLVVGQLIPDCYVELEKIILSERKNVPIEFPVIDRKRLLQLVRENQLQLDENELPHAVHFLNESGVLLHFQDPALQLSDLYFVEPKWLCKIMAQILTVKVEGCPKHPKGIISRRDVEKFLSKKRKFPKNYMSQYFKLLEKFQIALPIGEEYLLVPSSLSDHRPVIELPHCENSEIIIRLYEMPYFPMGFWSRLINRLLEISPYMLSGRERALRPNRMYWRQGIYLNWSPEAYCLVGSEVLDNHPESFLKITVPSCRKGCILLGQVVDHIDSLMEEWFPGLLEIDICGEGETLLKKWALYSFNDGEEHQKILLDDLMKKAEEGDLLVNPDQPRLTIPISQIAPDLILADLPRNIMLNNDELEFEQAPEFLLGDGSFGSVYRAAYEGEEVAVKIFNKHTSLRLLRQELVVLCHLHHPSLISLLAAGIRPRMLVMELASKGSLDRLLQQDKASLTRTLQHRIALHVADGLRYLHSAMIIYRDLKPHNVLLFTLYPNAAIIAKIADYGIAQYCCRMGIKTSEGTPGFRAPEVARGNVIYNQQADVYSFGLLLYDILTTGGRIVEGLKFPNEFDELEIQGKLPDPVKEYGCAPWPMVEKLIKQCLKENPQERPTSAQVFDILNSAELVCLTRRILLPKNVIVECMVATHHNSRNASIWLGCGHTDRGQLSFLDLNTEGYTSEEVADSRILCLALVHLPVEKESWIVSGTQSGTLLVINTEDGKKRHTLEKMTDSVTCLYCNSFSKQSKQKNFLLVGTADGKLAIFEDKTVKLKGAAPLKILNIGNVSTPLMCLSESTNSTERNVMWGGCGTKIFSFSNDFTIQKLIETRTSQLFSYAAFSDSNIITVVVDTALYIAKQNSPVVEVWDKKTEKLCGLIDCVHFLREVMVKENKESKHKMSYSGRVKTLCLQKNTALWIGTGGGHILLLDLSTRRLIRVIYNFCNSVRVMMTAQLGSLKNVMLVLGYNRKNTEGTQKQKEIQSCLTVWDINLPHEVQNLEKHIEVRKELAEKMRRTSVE

Legend:
Test in all cases: co-IP
HA-RAB32 Q85L (human) = biological target: T1, HA-RAB32 Q85L (human) (UniProt Q13637)
T1 sequence: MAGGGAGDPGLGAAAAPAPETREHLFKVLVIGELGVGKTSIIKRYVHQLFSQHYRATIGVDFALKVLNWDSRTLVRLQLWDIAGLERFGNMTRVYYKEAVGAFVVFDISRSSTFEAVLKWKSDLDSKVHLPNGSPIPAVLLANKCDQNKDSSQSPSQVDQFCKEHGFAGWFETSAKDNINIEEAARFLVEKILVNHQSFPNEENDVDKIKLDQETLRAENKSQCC

HA-RAB32 T39N (human) = biological target: T2, HA-RAB32 T39N (human) (UniProt Q13637)
T2 sequence: T1 sequence with T39N, L85Q

[1] = biological target: T3, HA-RAB32 Ser71 wild-type (human) (UniProt Q13637)
T3 sequence: T1 sequence with L85Q

HA-RAB32 Arg71 (human) = biological target: T4, HA-RAB32 Arg71 (human) (UniProt Q13637)
T4 sequence: T1 sequence with S71R, L85Q

Measured: binding

Leucine-rich repeat kinase 2 (LRRK2) (from UniProt Q5S007 1-2527)
binds: all assays above
